{"source": "patent US20040152666A1", "about": "“Methods of reducing complications associated with peritoneal dialysis in patients with diabetes obesity and/or hyperlipidemia” (priority 2002, published 2004)", "origin": "cited, not measured here", "details": "intravenous infusion (refs. 20, 16); cited from earlier work", "note": "Entries after “also recorded” stand apart in the source; their conditions may differ."}
{"compound": "CC(=O)N[C@H]1C(O)O[C@H](CO)[C@@H](O)[C@@H]1O", "note": "(stereo partly shown) [NAG, N-acetylglucosamine]", "values": [{"measurement": "change of blood glucose level after intravenous infusion", "value": "none or only slight increase of blood glucose level; also recorded: hypoglycemia"}]}
